Assay results as given in PMC5177663 (Frontiers in Pharmacology, 2016).

Assay: pharmacokinetics study, plasma concentrations by LC/MS-MS
Settings: middle-aged mice
Protocol: The sampling times are 30 min, 1, 2, 4, and 6 h. In each mouse, two time points of blood sampling were performed. Plasma was extracted from the blood sample by centrifugation (+4°C, 3000 g, 10 min) and stored at -80°C. Then, plasma samples were sent in dry ice to MDS (MDS Pharma Services, Switzerland) for the pharmacokinetic analysis.

Compound: COc1cc2c(cc1OC)C(=O)C(CC1CCN(Cc3ccccc3)CC1)C2 (centres unmarked) [Donepezil, reference compound]
- maximal plasma concentrations with versus without co-administration of S 38093 (Donepezil 0.3 mg/kg): similar
- plasma exposure when administered as a combination (combination versus compound alone): no increase
